Reference: patent US4973603A, “Platelet activating factor antagonist and methods of use therefor” (priority 1989, dated 1990)

System: arachidonic acid
Assay: The Mouse Ear Edema Test (arachidonic acid-induced skin edema)
Type: in vivo, mouse (Charles River CD-1, female)
Settings: 1.0 mg/ear topical, 1 hour before arachidonic acid (0.5 mg)
Description: The direct application of arachidonic acid to skin, such as the mouse ear, produces an edematous response which is believed to be mediated by eicosanoids resulting from the actions of both cyclooxygenase and lipoxygenase systems. J. M. Young, D. A. Spires, C. J. Bedford, B. Wagner, S. J. Ballaron and L. M. DeYoung, J. Invest. Dermatol. 82:367-371 (1984); E. E. Opas, R. J. Bonney, and J. L. Hanes J. Invest. Dermatol. 84:253-256 (1985). PAF has been reported to cause the release of arachidonic acid, and as a result, gives rise to increased levels of eicosanoids in the exposed tissues. F. H. Chilton, J. T. Flaherty, C. E. Walsh, M. J. Thomas, R. L. Wykle, L. R. DeChatelet and B. M. Waite, J. Biol. Chem., 257:5402-5407 (1982). Thus, the mouse ear edema test can be used to discover substances which antagonize the effects of PAF.
The test drugs were dissolved in 10 μl ethanol and applied to the inner surface of the left ears of Charles River CD-1 female mice. Control values were obtained by applying 10 μl of ethanol to the right ear so that each mouse served as its own control. One hour later, arachidonic acid (0.5 mg/ear in 10 μl ethanol) was applied to both ears and allowed to act on the skin for one hour. […] The extent of edema in each sample was measured by weighing on an analytical balance.

## COc1ccc2cc([C@H](C)C(=O)O)ccc2c1 [Naproxen, naproxen, reference compound]
  % Inhibition of Edema: 5.8%
